Assay results published in the supplement of paper PMC10849652.
Some of the results follow. Residues, ends and D or L forms follow the SMILES beside them. *: point of attachment. Cbz = O=C(OCc1ccccc1)*

Amino acid sequences for entries named in this document (tags omitted). A change or cut given only in a name is not applied to a line headed by its entry.
UniProt P57768: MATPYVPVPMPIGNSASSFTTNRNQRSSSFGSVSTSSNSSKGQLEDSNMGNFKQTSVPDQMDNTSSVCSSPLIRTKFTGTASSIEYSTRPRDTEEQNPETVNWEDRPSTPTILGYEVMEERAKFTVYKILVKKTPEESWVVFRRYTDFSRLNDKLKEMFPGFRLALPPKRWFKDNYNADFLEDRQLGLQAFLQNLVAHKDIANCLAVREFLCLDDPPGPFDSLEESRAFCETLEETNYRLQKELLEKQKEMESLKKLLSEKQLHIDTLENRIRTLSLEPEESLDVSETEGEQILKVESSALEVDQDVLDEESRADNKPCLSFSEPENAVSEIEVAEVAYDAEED
UniProt Q92540: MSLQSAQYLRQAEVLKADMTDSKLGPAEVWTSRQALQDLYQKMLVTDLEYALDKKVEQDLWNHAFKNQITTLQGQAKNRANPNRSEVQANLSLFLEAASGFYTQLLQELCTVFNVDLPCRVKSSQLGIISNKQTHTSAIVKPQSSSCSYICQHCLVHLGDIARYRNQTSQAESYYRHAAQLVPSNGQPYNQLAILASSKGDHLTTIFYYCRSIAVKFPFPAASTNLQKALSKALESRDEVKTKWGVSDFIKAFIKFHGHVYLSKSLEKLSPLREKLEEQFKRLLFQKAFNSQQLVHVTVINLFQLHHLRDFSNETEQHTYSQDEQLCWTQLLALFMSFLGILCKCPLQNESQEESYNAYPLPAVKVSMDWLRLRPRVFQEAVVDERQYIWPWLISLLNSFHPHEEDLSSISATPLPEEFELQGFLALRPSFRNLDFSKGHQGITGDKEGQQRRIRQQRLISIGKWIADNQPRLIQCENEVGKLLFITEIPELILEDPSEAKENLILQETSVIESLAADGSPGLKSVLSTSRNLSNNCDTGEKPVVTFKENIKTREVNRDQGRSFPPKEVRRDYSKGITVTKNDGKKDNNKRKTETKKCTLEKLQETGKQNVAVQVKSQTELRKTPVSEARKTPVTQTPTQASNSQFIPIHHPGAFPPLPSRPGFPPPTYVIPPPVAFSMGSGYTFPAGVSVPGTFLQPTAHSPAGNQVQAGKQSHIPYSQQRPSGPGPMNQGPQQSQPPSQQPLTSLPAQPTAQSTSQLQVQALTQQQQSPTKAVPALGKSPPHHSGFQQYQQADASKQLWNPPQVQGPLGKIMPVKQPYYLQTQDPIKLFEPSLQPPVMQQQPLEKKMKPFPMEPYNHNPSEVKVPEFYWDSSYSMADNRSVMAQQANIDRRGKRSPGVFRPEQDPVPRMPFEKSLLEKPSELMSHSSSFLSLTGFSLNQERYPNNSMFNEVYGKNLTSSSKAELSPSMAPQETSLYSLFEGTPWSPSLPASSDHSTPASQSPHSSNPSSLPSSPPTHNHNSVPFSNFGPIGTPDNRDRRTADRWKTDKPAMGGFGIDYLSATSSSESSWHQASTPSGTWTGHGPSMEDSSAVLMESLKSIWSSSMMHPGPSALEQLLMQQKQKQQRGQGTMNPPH
UniProt Q6J4K2: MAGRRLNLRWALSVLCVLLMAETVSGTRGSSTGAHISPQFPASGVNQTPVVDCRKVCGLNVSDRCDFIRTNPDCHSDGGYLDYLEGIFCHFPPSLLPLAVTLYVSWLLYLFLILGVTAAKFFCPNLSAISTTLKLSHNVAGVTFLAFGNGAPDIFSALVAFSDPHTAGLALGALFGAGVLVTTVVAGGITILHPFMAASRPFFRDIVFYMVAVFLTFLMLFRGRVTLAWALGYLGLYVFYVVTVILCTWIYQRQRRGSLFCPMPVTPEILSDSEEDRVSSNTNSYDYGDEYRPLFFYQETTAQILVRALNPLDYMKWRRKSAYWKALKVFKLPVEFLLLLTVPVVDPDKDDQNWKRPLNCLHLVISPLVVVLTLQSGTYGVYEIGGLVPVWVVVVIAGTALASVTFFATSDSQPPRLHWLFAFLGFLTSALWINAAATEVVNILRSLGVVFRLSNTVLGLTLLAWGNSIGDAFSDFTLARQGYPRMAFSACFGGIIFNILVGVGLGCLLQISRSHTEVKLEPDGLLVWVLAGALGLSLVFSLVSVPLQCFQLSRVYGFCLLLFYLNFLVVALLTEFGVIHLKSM
UniProt Q15796, whole entry, looked up: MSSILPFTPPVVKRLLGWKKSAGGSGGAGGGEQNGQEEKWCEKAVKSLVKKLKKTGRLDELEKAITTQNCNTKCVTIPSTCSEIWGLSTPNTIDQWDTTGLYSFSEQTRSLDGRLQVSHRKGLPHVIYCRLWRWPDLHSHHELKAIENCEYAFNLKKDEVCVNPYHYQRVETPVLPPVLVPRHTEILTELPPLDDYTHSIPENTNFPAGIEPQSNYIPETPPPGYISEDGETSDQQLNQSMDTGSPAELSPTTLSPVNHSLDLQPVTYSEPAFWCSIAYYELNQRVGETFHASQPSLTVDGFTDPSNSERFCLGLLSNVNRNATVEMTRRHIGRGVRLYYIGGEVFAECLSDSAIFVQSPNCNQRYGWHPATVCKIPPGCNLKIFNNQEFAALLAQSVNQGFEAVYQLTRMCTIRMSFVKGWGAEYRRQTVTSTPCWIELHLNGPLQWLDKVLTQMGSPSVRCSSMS
UniProt P17405: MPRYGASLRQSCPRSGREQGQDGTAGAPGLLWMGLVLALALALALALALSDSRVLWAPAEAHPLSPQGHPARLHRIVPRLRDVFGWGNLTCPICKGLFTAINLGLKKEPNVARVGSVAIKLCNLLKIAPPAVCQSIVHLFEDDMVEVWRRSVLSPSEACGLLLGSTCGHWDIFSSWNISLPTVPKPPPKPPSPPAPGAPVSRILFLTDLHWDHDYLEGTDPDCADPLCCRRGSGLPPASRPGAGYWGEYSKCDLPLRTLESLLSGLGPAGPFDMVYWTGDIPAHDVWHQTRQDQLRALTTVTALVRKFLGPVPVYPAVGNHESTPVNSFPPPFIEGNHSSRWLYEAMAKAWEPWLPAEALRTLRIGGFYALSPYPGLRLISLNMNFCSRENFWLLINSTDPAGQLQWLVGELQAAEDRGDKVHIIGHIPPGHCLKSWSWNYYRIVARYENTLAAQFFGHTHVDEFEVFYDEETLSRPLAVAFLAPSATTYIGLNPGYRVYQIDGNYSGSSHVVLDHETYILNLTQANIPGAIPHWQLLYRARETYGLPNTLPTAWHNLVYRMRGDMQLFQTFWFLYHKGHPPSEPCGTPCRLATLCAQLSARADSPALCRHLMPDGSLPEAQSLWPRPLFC
UniProt P03973: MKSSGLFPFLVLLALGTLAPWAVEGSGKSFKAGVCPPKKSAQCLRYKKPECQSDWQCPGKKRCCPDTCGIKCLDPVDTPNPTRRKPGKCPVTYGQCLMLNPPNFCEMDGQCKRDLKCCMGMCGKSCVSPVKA
UniProt Q9NRS6: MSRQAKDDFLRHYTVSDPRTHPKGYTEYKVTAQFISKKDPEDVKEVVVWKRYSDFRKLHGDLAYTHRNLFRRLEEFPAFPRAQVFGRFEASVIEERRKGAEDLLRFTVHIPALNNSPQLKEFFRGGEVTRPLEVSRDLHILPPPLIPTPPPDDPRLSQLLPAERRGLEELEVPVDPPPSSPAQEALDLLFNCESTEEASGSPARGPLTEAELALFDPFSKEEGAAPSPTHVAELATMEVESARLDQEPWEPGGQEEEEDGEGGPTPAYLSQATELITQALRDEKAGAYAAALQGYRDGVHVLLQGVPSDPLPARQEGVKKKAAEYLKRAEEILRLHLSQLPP
UniProt O60271: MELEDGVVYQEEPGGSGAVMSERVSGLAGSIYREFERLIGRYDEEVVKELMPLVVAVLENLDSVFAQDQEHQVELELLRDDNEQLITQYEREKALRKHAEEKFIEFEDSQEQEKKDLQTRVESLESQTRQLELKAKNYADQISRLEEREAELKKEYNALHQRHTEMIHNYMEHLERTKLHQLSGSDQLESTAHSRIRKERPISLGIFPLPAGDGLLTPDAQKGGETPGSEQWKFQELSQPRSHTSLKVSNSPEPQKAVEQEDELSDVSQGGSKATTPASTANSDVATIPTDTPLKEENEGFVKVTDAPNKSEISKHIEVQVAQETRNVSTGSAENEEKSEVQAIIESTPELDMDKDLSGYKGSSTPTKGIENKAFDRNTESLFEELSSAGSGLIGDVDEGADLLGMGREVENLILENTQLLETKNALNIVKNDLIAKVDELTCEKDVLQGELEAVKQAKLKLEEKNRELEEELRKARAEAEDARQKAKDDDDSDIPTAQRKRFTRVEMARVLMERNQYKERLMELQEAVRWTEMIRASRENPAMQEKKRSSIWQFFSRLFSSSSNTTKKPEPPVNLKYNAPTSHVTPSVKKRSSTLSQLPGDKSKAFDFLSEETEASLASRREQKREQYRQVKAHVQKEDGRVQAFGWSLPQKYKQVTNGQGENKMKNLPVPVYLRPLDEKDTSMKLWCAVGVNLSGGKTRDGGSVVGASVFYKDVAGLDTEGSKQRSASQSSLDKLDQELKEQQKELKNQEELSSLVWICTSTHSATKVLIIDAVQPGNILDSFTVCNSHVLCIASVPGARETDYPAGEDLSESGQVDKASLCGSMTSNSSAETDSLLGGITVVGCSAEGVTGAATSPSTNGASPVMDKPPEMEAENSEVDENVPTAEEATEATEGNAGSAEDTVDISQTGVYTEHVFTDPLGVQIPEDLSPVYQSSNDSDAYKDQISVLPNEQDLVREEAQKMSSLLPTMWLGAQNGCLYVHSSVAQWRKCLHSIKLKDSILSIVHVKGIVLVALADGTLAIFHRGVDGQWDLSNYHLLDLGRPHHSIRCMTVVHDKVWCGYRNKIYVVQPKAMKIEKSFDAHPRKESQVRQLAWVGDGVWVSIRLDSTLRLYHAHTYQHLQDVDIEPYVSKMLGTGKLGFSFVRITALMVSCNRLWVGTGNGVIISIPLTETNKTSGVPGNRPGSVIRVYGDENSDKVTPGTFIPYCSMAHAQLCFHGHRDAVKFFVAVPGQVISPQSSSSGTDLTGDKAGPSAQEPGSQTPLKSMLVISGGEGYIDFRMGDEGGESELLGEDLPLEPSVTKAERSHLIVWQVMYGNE
UniProt Q9UMY4: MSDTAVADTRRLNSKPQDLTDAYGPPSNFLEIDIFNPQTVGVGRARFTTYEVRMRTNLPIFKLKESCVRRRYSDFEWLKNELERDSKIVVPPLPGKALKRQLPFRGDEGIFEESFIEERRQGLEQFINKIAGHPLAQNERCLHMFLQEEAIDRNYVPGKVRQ
UniProt Q7Z3B0: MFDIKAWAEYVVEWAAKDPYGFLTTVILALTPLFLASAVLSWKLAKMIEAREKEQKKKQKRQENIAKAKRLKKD
UniProt Q8WVI0: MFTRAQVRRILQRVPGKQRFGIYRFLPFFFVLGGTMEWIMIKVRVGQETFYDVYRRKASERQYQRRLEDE
UniProt Q92543: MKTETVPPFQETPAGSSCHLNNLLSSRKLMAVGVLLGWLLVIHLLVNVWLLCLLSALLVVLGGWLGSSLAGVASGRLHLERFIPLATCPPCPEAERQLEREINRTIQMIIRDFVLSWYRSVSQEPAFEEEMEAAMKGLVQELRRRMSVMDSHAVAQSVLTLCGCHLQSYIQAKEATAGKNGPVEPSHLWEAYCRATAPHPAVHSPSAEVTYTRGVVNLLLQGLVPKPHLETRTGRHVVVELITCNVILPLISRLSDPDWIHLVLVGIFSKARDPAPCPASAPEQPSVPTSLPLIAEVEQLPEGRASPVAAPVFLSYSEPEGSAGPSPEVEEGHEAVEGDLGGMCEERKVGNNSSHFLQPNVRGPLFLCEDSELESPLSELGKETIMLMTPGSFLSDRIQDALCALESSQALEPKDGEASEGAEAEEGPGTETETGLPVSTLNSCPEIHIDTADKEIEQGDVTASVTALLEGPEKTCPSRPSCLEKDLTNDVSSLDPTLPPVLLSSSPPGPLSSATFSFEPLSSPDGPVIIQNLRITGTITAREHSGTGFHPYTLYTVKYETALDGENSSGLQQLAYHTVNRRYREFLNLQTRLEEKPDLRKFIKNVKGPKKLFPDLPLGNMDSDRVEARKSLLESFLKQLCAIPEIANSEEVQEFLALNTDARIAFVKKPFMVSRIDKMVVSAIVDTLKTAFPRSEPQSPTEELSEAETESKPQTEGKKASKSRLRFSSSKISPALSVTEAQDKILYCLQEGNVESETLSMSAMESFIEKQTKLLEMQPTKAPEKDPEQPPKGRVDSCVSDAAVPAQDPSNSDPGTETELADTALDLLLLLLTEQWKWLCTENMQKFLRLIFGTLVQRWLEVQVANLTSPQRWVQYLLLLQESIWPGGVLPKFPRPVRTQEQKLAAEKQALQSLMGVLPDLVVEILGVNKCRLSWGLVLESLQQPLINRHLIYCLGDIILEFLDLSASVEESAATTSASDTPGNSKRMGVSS
UniProt Q9H4I9: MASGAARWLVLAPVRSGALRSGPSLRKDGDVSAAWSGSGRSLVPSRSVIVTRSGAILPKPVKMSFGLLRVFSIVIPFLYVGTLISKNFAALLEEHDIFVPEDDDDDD
UniProt O75971: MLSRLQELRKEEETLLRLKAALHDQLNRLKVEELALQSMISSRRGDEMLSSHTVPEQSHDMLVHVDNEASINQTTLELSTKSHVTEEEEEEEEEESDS
UniProt B2RUZ4: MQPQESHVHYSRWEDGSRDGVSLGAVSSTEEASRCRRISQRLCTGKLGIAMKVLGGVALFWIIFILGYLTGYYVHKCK
UniProt P58511: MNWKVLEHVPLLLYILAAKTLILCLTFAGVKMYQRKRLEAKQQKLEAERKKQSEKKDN

What follows are targets tested with CC(C)(C)Cn1c(N)nc2ccc(-c3[nH]c(C(C)(C)C)nc3-c3ccc(F)cc3)nc21 [ralimetinib] (assay: log2 fold change, soluble protein after heating vs DMSO (PISA); higher = thermal stabilisation; K562 cells, 10 uM, 30 min; active = over 0.2 and 3.5 SD of the protein, either way, in both replicates (recomputed)).
How it was run: (§1)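 For each measurement, 10 μM compound was applied for 30 min to K562 cells at 2×10^6 cells/mL. Aliquots were heated for 3 min across 48°C-58°C, pooled, and extracted in PBS with 0.5% NP-40 at 4°C; the supernatant after 21,000xg for 90 min was soluble protein. This was quantified by TMTpro 16plex LC-MS/MS with channel sums equalised, and thermal stability was reported relative to control samples from duplicates, on a log2 fold-change scale.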

log2 fold change, inactive:
SNX16 (UniProt P57768) -0.044
SOX5 (UniProt P35711) 0.037
SNRPN isoform 2 (UniProt P63162) 0.086
SLFN14 (UniProt P0C7P3) 0.136
SMG7 isoform 4 (UniProt Q92540) 0.152
SLC8B1 (UniProt Q6J4K2) -0.093
SMAD2 (UniProt Q15796) -0.069
SNX27 (UniProt Q96L92) 0.284
SMPD1 (UniProt P17405) -0.141
SNTA1 (UniProt Q13424) -0.073
SP4 (UniProt Q02446) -0.3
SLPI (UniProt P03973) 0.084
SNX15 (UniProt Q9NRS6) -0.051
SNRPD2 (UniProt K7EJB5) -0.221
SPAG9 isoform 4 (UniProt O60271) 0.191
SNX12 isoform 1 (UniProt Q9UMY4) -0.011

These targets were tested with CC(C)(O)CC(=O)NCCn1ccc2ncnc(Nc3ccc(Oc4cccc(C(F)(F)F)c4)c(Cl)c3)c21 in the same assay as above.
How it was run: as §1

log2 fold change, inactive:
SNX16 (UniProt P57768) -0.114
SMG9 (UniProt Q9H0W8) 0.071
SLFN14 (UniProt P0C7P3) -0.03
SMG7 isoform 4 (UniProt Q92540) 0.06
SMCR8 (UniProt Q8TEV9) -0.02
SMAD2 (UniProt Q15796) -0.088
SNX27 (UniProt Q96L92) -0.042
SNX2 isoform 2 (UniProt O60749) -0.377
SMIM15 (UniProt Q7Z3B0) 0.132
SLC9A1 (UniProt P19634) -0.04
SMIM4 (UniProt Q8WVI0) -0.151
SNTA1 (UniProt Q13424) -0.017
SNX19 (UniProt Q92543) -0.074
SMDT1 (UniProt Q9H4I9) -0.012
SNAPC5 (UniProt O75971) -0.012
SNX12 isoform 1 (UniProt Q9UMY4) -0.068

What follows are targets tested with CC(C)C1=C2N=C(C=C(N2N=C1)NCC3=CC=CC=C3)NCCCCCCN in the same assay as above.
How it was run: as §1

log2 fold change, inactive:
SMARCD2 (UniProt Q92925) -0.302
SNX16 (UniProt P57768) -0.057
SMG9 (UniProt Q9H0W8) -0.161
SOX5 (UniProt P35711) -0.086
SNX25 (UniProt Q9H3E2) -0.19
SMG7 isoform 4 (UniProt Q92540) -0.117
SMIM1 (UniProt B2RUZ4) 0.041
SLC8B1 (UniProt Q6J4K2) -0.378
SMCR8 (UniProt Q8TEV9) -0.078
SMAD2 (UniProt Q15796) -0.015
SNX27 (UniProt Q96L92) -0.08
SMIM15 (UniProt Q7Z3B0) 0.005
SLC9A1 (UniProt P19634) -0.004
SMIM4 (UniProt Q8WVI0) 0.164
SNX19 (UniProt Q92543) -0.062
SNAPC5 (UniProt O75971) 0.076
SPAG9 isoform 4 (UniProt O60271) -0.202
SNX12 isoform 1 (UniProt Q9UMY4) -0.09

What follows are targets tested with CC(C)C[C@@H](C=O)NC(=O)[C@H](CC(C)C)NC(=O)[C@H](CC(C)C)NC(=O)OCc1ccccc1 in the same assay as above.
How it was run: as §1

log2 fold change, inactive:
SNX16 (UniProt P57768) 0.19
SOX5 (UniProt P35711) 0.368
SNRPN isoform 2 (UniProt P63162) -0.031
SLFN14 (UniProt P0C7P3) 0.229
SMG7 isoform 4 (UniProt Q92540) 0.012
SLC8B1 (UniProt Q6J4K2) 0.048
SMAD2 (UniProt Q15796) 0.124
SNX27 (UniProt Q96L92) 0.116
SMPD1 (UniProt P17405) -0.045
SNTA1 (UniProt Q13424) 0.018
SP4 (UniProt Q02446) 0.175
SLPI (UniProt P03973) -0.557
SNX15 (UniProt Q9NRS6) 0.021
SNRPD2 (UniProt K7EJB5) 0.128
SPAG9 isoform 4 (UniProt O60271) 0.049
SNX12 isoform 1 (UniProt Q9UMY4) 0.03

These targets were tested with CC(C)N(C[C@H]1O[C@@H](n2cnc3c(N)ncnc32)[C@H](O)[C@@H]1O)[C@H]1C[C@@H](CCc2nc3cc(C(C)(C)C)ccc3[nH]2)C1 [pinometostat] in the same assay as above.
How it was run: as §1

log2 fold change, inactive:
SMARCD2 (UniProt Q92925) 0.069
SMPD4 isoform 2 (UniProt Q9NXE4) 0
SNX16 (UniProt P57768) 0.072
SMG9 (UniProt Q9H0W8) 0.049
SMU1 isoform 2 (UniProt Q2TAY7) -0.162
SOX5 (UniProt P35711) -0.088
SNX25 (UniProt Q9H3E2) -0.041
SNRPN isoform 2 (UniProt P63162) -0.053
SLFN14 (UniProt P0C7P3) 0.468
SMG7 isoform 4 (UniProt Q92540) 0.07
SMIM1 (UniProt B2RUZ4) -0.02
SLC8B1 (UniProt Q6J4K2) 0.019
SMCR8 (UniProt Q8TEV9) 0.049
SMAD2 (UniProt Q15796) -0.125
SNX27 (UniProt Q96L92) 0.432
SMPD1 (UniProt P17405) 0.041
SNX2 isoform 2 (UniProt O60749) -0.094
SMIM15 (UniProt Q7Z3B0) -0.16
SLC9A1 (UniProt P19634) 0.048
SMIM4 (UniProt Q8WVI0) 0.105
SNTA1 (UniProt Q13424) 0.016
SP4 (UniProt Q02446) -0.035
SNX19 (UniProt Q92543) 0.114
SLPI (UniProt P03973) -0.463
SNX15 (UniProt Q9NRS6) -0.069
SP2 (UniProt Q02086) 0.212
SMDT1 (UniProt Q9H4I9) -0.043
SMIM11A (UniProt P58511) -0.013
SNAPC5 (UniProt O75971) -0.031
SNRPD2 (UniProt K7EJB5) -0.053
SPAG9 isoform 4 (UniProt O60271) 0.061
SNX12 isoform 1 (UniProt Q9UMY4) 0.032
